According to the supplement of paper PMC10331698:
± gives the standard deviation of the averaged measurements. Most values lie at the level of the controls, where differences are scatter.

Assays:
Assay in all cases: level (log10 ratio to DMSO vehicle control); higher = higher biomarker level / cell amount than vehicle control
[1] = compound: C=C(C)C(=O)OCCC(F)(F)C(F)(F)C(F)(F)C(F)(F)C(F)(F)C(F)(F)C(F)(F)C(F)(F)F [8:2 Fluorotelomer methacrylate]; details: in DMSO
Procedure: (§1)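 BioMAP Diversity Plus panel of 12 human primary cell co-culture systems (3C, 4H, LPS, SAg, BT, BF4T, BE3C, CASM3C, HDF3CGF, KF3CT, MyoF, Mphg). Compounds were added 1 h before stimulation and left for 24 h (MyoF 48 h; BT 72 h for soluble read-outs or 6 d for IgG). Biomarkers were read by ELISA, cytotoxicity by SRB, PBMC viability and proliferation by Alamar Blue. Each well value was divided by the mean of 8 DMSO control wells on the same plate and log10 transformed; duplicate blinded samples were tested at 4 concentrations.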

Octafluoroadipamide = compound: NC(=O)C(F)(F)C(F)(F)C(F)(F)C(F)(F)C(N)=O [Octafluoroadipamide]; details: 2200 nM; in DMSO
Procedure: as §1

[2] = compound: COC(=O)CCC(F)(F)C(F)(F)C(F)(F)C(F)(F)F [Methyl 2H,2H,3H,3H-perfluoroheptanoate]; details: 2200 nM; in DMSO
Procedure: as §1

[3] = compound: O=C(O)CCC(F)(F)C(F)(F)C(F)(F)C(F)(F)C(F)(F)F [2H,2H,3H,3H-Perfluorooctanoic acid]; details: 2200 nM; in DMSO
Procedure: as §1

[4] = compound: FC(F)(F)C(F)(F)C(F)(F)C(F)(F)C(F)(F)CCI [1-Iodo-1H,1H,2H,2H-perfluoroheptane]; details: 2200 nM; in DMSO
Procedure: as §1

Nonafluoropentanamide = compound: NC(=O)C(F)(F)C(F)(F)C(F)(F)C(F)(F)F [Nonafluoropentanamide]; details: 2200 nM; in DMSO
Procedure: as §1

[5] = compound: C=C(C)C(=O)OCCC(F)(F)C(F)(F)C(F)(F)C(F)(F)C(F)(C(F)(F)F)C(F)(F)F [(Perfluoro-5-methylhexyl)ethyl 2-methylprop-2-enoate]; details: in DMSO
Procedure: as §1

Perfluoropinacol = compound: OC(C(F)(F)F)(C(F)(F)F)C(O)(C(F)(F)F)C(F)(F)F [Perfluoropinacol]; details: in DMSO
Procedure: as §1

[6] = compound: O=S(=O)(O)CCC(F)(F)C(F)(F)C(F)(F)C(F)(F)C(F)(F)C(F)(F)F [6:2 Fluorotelomer sulfonic acid]; details: in DMSO
Procedure: as §1

[7] = compound: NS(=O)(=O)C(F)(F)C(F)(F)C(F)(F)C(F)(F)C(F)(F)C(F)(F)F [Perfluorohexanesulfonamide]; details: 2200 nM; in DMSO
Procedure: as §1

[8] = compound: O=C(O)C(F)(F)C(F)(F)C(F)(F)C(F)(F)C(F)(F)C(F)(F)C(F)(F)C(F)(F)Cl [9-Chloro-perfluorononanoic acid]; details: in DMSO
Procedure: as §1

[9] = compound: O=S(=O)(O)C(F)(F)C(F)(F)OC(F)(F)C(F)(F)F [Perfluoro(2-ethoxyethane)sulfonic acid]; details: 2200 nM; in DMSO
Procedure: as §1

Tetrafluorosuccinic acid = compound: O=C(O)C(F)(F)C(F)(F)C(=O)O [Tetrafluorosuccinic acid]; details: 2200 nM; in DMSO
Procedure: as §1

[10] = compound: OCCC(F)(F)C(F)(F)C(F)(F)C(F)(F)F [4:2 Fluorotelomer alcohol]; details: 2200 nM; in DMSO
Procedure: as §1

Test System | level (log10) ([1]; 740 nM) | level (log10) ([1]; 2200 nM) | level (log10) (Octafluoroadipamide) | level (log10) [2] | level (log10) [3] | level (log10) [4] | level (log10) (Nonafluoropentanamide) | level (log10) ([5]; 740 nM) | level (log10) ([5]; 2200 nM) | level (log10) ([5]; 6700 nM) | level (log10) ([5]; 20000 nM) | level (log10) (Perfluoropinacol; 2200 nM) | level (log10) (Perfluoropinacol; 6700 nM) | level (log10) (Perfluoropinacol; 20000 nM) | level (log10) ([6]; 2200 nM) | level (log10) ([6]; 6700 nM) | level (log10) ([6]; 20000 nM) | level (log10) ([6]; 60000 nM) | level (log10) [7] | level (log10) ([8]; 2200 nM) | level (log10) ([8]; 6700 nM) | level (log10) ([8]; 20000 nM) | level (log10) [9] | level (log10) (Tetrafluorosuccinic acid) | level (log10) [10]
BE3C:HLA-DR | -0.0015 ± 0.012 | -0.0095 ± 0.0035 | 0.0135 ± 0.015 | 0.0025 ± 0.022 | 0.0015 ± 0.0064 | -0.005 ± 0.0014 | 0.0165 ± 0.0035 | -0.0015 ± 0.016 | -0.0065 ± 0.015 | -0.0115 ± 0.0078 | -0.0045 ± 0.0078 | 0.001 ± 0.0085 | -0.0145 ± 0.0064 | -0.0565 ± 0.019 | -0.0055 ± 0.0021 | -0.0135 ± 0.021 | -0.0175 ± 0.012 | -0.024 ± 0.0099 | -0.0035 ± 0.0064 | -0.0155 ± 0.044 | -0.0575 ± 0.025 | -0.445 ± 0.052 | -0.0095 ± 0.011 | -0.0055 ± 0.04 | -0.0035 ± 0.042
HDF3CGF:CXCL10/IP-10 | -0.0265 ± 0.052 | -0.0125 ± 0.04 | -0.022 ± 0.031 | 0.005 | -0.0245 ± 0.0021 | 0.0055 ± 0.03 | 0.007 ± 0.034 | 0.0105 ± 0.026 | 0.002 ± 0.011 | -0.0005 ± 0.0078 | -0.003 | -0.0305 ± 0.044 | -0.0535 ± 0.023 | -0.215 ± 0.012 | -0.026 ± 0.016 | -0.0075 ± 0.018 | -0.046 ± 0.021 | -0.0325 ± 0.042 | 0.0035 ± 0.023 | -0.032 ± 0.02 | -0.06 ± 0.027 | -0.175 ± 0.0021 | -0.0035 ± 0.015 | -0.008 ± 0.013 | -0.006 ± 0.0042
KF3CT:SRB | 0.0025 ± 0.0035 | 0.0005 ± 0.0035 | 0.0115 ± 0.026 | -0.0135 ± 0.005 | -0.0035 ± 0.005 | 0.0065 ± 0.011 | 0.0035 ± 0.0092 | 0.005 ± 0.0057 | 0.002 ± 0.0014 | -0.006 ± 0.0014 | 0.003 ± 0.016 | 0.0105 ± 0.011 | -0.004 ± 0.0042 | -0.014 ± 0.02 | -0.0015 ± 0.00071 | -0.004 | 0.0005 ± 0.0035 | 0.006 ± 0.016 | 0.0095 ± 0.016 | -0.0005 ± 0.005 | -0.0135 ± 0.0035 | -0.0145 ± 0.012 | 0.0025 ± 0.0078 | -0.001 ± 0.016 | 0.0025 ± 0.00071
CASM3C:IL-6 | 0.034 ± 0.048 | -0.0065 ± 0.026 | 0.0025 ± 0.054 | 0.0095 ± 0.052 | 0.007 ± 0.037 | -0.0305 ± 0.0035 | 0.0715 ± 0.036 | 0.033 ± 0.088 | -0.041 ± 0.014 | -0.035 ± 0.0042 | 0.0345 ± 0.028 | 0.01 ± 0.054 | -0.0045 ± 0.025 | 0.033 ± 0.0085 | 0.0115 ± 0.043 | -0.003 ± 0.011 | -0.014 ± 0.0014 | 0.006 ± 0.017 | 0.003 ± 0.024 | -0.002 ± 0.055 | -0.0115 ± 0.00071 | -0.0325 ± 0.019 | 0.0105 ± 0.032 | 0.008 ± 0.052 | -0.0085 ± 0.039
3C:SRB | -0.0045 ± 0.00071 | -0.0135 ± 0.0092 | -0.0245 ± 0.026 | 0.013 ± 0.024 | -0.0045 ± 0.016 | -0.007 ± 0.0028 | 0.0015 ± 0.0092 | -0.0005 ± 0.005 | 0.006 ± 0.0028 | -0.008 ± 0.0042 | -0.0175 ± 0.0078 | -0.005 ± 0.011 | -0.0665 ± 0.013 | -0.188 ± 0.0028 | 0.002 | 0.001 ± 0.0099 | 0.002 ± 0.0057 | -0.0045 ± 0.028 | -0.004 ± 0.0028 | 0.0005 ± 0.0078 | -0.0005 ± 0.005 | -0.0165 ± 0.0035 | -0.0195 ± 0.013 | -0.005 ± 0.0071 | 0.0025 ± 0.0035
